From article PMC12203921
Results are given in words; binding and its absence hold for the method and conditions named. In cells and extracts the contact can be indirect. Here binding means that the protein was enriched with, or labelled near, the bait; the list need not be complete. Values belong to the binder of their own block, whether it stands above or below them.

Molecular target: T1, coiled-coil domain-containing 13 (CCDC13) (mouse (endogenous in testis)) (UniProt D3YV10)
T1 sequence: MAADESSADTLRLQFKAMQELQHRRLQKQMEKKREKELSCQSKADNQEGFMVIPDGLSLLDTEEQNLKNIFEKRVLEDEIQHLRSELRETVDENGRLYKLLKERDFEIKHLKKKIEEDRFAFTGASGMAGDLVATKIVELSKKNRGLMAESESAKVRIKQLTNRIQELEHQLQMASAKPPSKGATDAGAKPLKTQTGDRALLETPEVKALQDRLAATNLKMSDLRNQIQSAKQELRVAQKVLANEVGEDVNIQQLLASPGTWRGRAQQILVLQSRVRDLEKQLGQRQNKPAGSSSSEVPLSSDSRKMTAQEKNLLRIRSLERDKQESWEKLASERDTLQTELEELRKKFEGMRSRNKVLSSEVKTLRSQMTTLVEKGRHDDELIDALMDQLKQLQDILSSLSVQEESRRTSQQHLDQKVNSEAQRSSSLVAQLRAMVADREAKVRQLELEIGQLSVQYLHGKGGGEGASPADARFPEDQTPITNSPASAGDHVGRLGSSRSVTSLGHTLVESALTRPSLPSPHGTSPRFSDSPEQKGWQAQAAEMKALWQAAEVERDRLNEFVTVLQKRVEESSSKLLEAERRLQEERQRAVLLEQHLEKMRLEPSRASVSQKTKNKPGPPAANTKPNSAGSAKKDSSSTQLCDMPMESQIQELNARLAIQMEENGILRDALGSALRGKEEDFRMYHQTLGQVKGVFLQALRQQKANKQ
Experiment: affinity purification with mass spectrometry; immunoprecipitation with the CCDC13 antibody from mouse testis lysate, LC-MS of the precipitate

binding: binds
B1: BBS4 (protein, UniProt Q8C1Z7 1-520)
chain: MAEVKLGMKTQVPASVESQKPRSKKAPDFPIVEKQNWLIHLHYIRKDYEACKAVIKEQLQETQGLCEYAIYVQALIFRLEGNIQESLELFQTCAVLSPQCADNLKQVARSLFLLGKHKAATEVYNEAAKLNQKDWEICHNLGVCYTYLKQFNKAQDQLHSALQLNKHDLTYIMLGKIHLLQGDLDKAIEIYKKAVEFSPENTELLTTLGLLYLQLGVYQKAFEHLGNALTYDPANYKAILAAGSMMQTHGDFDVALTKYRVVACAIPESPPLWNNIGMCFFGKKKYVAAISCLKRANYLAPFDWKILYNLGLVHLTMQQYASAFHFLSAAINFQPKMGELYMLLAVALTNLEDIENARRAYVEAVRLDKCNPLVNLNYAVLLYNQGEKKSALAQYQEMEKKVNFLKDNSPLEFDSEMVEMAQKLGAALQVGEALVWTKPVKDPKTKHRTNSGSKSATLQQPLGSIQALGQAMSSAAAYRKILSGAVGAQLPKPPSLPLEPEPEPTVEASPTEASEQKKEK

binding: binds
B2: CEP131 (protein, UniProt Q62036 1-1060)
chain: MKGSRTITATPEGSPEAVDLSLIGLPPPMSQRPGSASATRSIFRSMSVATGSEPRKKALEATGPGGPRAINNLRRSNSTTQVNQSWTGSPRPAEPTDFLMLFEGSTSGRRRVASLSKASSEKEATWNVLDEQPRGLALPASAQSPSTLDSALGPRRKECPLAPSFTANNRSNKGAVGNCVTTMVHNHYASSKMVSPPKSSNQTAPSLNNIVKAAAREGGEGSDLGKPRKNLSSASQSARGTTGLLRRREVTEEEAERFIHQVNQAAVTIQRWYRCQVQRRRAGAAALEHLLASKREGQRQRLGGGNLLELHRQEEAARKKAREEKARQARQAAIQVLQQKRAQKASEAEHRRPKDRPETRAPEQPRPMQEPGCVTHPKANNAGASIYPTGPADPCPPASESSPEQWQSPEDKPQDIHSQGEARQDLAVSGSSRGKARARATLDDLLDTLKLLEEEPEPLPHPKAYHKDRYAWTDEEEDANSLTADNLEKFGKLSAAPGPPDDGTLLSEAKLQSIMTFLDEMEKSGQERPAPWRESLVLEAGSGSEGSTSVMRLKLELEEKKQAMALLQRALAQQRDLTVRRVKETEKELTRQLRQQKEQYEATIQRHLSFIDQLIEDKKVLSEKCEAVVAELKHGDQRCRERVAQMQEQHELEIKKLKELMSATEKIRREKWINEKTKKIKEITVRGLEPEIQKLIAKHKQEVRRLRGLHEAELQQREEQAAQRHLRQAEELRQHLDREREVLGQQERERAQQRFEQHLEQEQRALEQQRRRLYNEVAEEKERLGQQAARQRAELEELRQQLEESSAALTRALRAEFERSREEQERRHQMELKALKDQLEAERQAWVASCAKKEEAWLLTRERELKEEIRKGRDQEIELVIHRLEADMTLAKEESERAAESRVKRVRDKYETELSELEQSERKLQERCSELKGRLGEAEGEKERLQSLVRQKEKELEDLRAVNTQMCSERASLAQVVRQEFAEQLAASQEETQRVKVELAELQARQQVELDEVHRRVKTALARKEAAVNSLRKQHEAAVKRADHLEELLEQHKGSSLSSK
